Experimental data taken from PMC10951424.
No constants are given. Whether binding was seen depends on the method and setting. Binding seen in cells or lysates may run through a third protein. Some results given as binding are weak or reduced against the parent protein; the word gives no strength.

Chains of the proteins cited; added tags and fusions are not shown.
UniProt P84022: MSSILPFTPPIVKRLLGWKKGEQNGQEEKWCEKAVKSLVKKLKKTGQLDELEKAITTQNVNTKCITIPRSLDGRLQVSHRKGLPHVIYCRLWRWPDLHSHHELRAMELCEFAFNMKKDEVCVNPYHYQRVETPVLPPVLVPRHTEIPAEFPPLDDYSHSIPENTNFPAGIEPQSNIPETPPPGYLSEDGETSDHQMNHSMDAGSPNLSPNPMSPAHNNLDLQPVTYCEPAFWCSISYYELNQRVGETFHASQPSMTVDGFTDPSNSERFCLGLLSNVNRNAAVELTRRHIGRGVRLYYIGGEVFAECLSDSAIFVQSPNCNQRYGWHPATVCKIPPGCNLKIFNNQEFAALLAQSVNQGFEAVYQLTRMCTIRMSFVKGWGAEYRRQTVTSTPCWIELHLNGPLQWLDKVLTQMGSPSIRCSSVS
UniProt O14744: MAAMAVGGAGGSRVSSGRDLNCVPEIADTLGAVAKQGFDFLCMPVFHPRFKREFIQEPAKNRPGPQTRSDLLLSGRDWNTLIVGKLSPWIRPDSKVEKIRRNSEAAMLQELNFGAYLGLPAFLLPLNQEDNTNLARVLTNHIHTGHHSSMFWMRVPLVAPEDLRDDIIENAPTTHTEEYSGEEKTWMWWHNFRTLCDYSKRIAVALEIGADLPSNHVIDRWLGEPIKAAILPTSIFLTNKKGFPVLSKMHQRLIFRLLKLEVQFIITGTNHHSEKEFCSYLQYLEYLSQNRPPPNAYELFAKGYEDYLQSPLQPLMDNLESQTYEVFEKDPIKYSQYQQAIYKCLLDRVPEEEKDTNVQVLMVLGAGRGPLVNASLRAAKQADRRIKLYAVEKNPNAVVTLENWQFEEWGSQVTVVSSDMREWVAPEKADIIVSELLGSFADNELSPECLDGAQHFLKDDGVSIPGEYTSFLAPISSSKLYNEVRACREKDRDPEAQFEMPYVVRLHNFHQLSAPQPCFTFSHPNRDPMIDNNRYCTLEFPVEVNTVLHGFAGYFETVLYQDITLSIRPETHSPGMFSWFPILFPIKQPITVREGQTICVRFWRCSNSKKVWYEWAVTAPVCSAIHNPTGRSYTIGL

Target: HA-tagged Smad3 (human) (UniProt P84022)
Test: co-IP; nuclear extracts of HEK293T cells transfected with Flag-tagged PRMT5 and HA-tagged SMAD3; immunoprecipitation with anti-Flag or anti-HA beads; 4 °C, 2 h; western blot

- binding: binds
Substance: FLAG-tagged PRMT5 (from UniProt O14744 1-637) (enzyme)
